# Reference: the supplement of paper PMC8728848
# Some of the results follow.
# B1: his-Lectin-24A (Drosophila melanogaster) (protein)
# chain: MFRLSVLVLNLLLVSHEFSAGTAKIEIQPLPALCNGYCFPTLKPVMEYVAIHQDKWNTCTEILANEARKDQIQLNIQLDALKADVSNIKASQLSKDEKLDRMEREQFAMHESLETINRYLTVKLDRTKLQLEAIKNTMDYMKAQMDGYFSAINGVQCLQPGFEKIGDRYFYIEEDVELNWLDAQAKCRRMGGHLASIKTKQEFDAIVEKLDDSKSYFLGVNENTKTGDFVSAASGKSCLYHEWGPGEPHHNNDQERCVSILRKLMHVGNCTYEKRFICQYGI
# Legend:
# Assay in all cases: glycan array binding signal (z-score within array); higher = stronger binding
# Conditions in all cases: glycan notation: IUPAC condensed, linker removed
# [1] = biological target: Fuc(a1-2)[GalNAc(a1-3)]Gal(b1-3)GlcNAc(b1-6)GalNAc
# In short: (§1)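 The Consortium for Functional Glycomics database supplied 3228 glycan arrays, of which those lacking an available protein sequence were dropped. The binding signal, a within-array Z-score, was averaged across arrays of the same protein sequence and across linkers. Negative scores can be read as non-binding.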
# [2] = biological target: Fuc(a1-2)[GalNAc(a1-3)]Gal(b1-4)Glc
# In short: as §1
# [3] = biological target: Fuc(a1-2)[GalNAc(a1-3)]Gal(b1-4)GlcNAc
# In short: as §1
# [4] = biological target: Fuc(a1-2)[GalNAc(a1-3)]Gal(b1-4)GlcNAc(b1-2)Man
# In short: as §1
# [5] = biological target: Fuc(a1-2)[GalNAc(a1-3)]Gal(b1-4)GlcNAc(b1-2)Man(a1-3)[Fuc(a1-2)[GalNAc(a1-3)]Gal(b1-4)GlcNAc(b1-2)Man(a1-6)]Man(b1-4)GlcNAc(b1-4)GlcNAc
# In short: as §1
# [6] = biological target: Fuc(a1-2)[GalNAc(a1-3)]Gal(b1-4)GlcNAc(b1-2)Man(a1-3)[Fuc(a1-2)[GalNAc(a1-3)]Gal(b1-4)GlcNAc(b1-2)Man(a1-6)]Man(b1-4)GlcNAc(b1-4)[Fuc(a1-6)]GlcNAc
# In short: as §1
# [7] = biological target: Fuc(a1-2)[GalNAc(a1-3)]Gal(b1-4)GlcNAc(b1-3)Gal(b1-4)GlcNAc
# In short: as §1
# [8] = biological target: Fuc(a1-2)[GalNAc(a1-3)]Gal(b1-4)GlcNAc(b1-3)Gal(b1-4)GlcNAc(b1-3)Gal(b1-4)GlcNAc
# In short: as §1
# [9] = biological target: Fuc(a1-2)[GalNAc(a1-3)]Gal(b1-4)GlcNAc(b1-3)GalNAc
# In short: as §1
# [10] = biological target: Fuc(a1-2)[GalNAc(a1-3)]Gal(b1-4)GlcNAc(b1-3)[Fuc(a1-2)[GalNAc(a1-3)]Gal(b1-4)GlcNAc(b1-6)]GalNAc
# In short: as §1
# [11] = biological target: Fuc(a1-2)[GalNAc(a1-3)]Gal(b1-4)GlcNAc(b1-6)GalNAc
# In short: as §1
# [12] = biological target: Fuc(a1-2)[GalNAc(a1-3)]Gal(b1-4)[Fuc(a1-3)]GlcNAc
# In short: as §1
# [13] = biological target: Fuc(a1-2)[GalNAc(a1-3)]Gal(b1-4)[Fuc(a1-3)]GlcNAc(b1-3)GalNAc
# In short: as §1
# [14] = biological target: Fuc(a1-2)[GalNAc(a1-4)]Gal(b1-4)GlcNAc
# In short: as §1
# [15] = biological target: Fuc(a1-2)[GalNAc(b1-3)]Gal
# In short: as §1
# Fuc(a1-3)GlcNAc = biological target: Fuc(a1-3)GlcNAc
# In short: as §1
# [16] = biological target: Fuc(a1-3)[Gal(b1-4)]Glc6S
# In short: as §1
# [17] = biological target: Fuc(a1-3)[Gal(b1-4)]GlcNAc
# In short: as §1
# [18] = biological target: Fuc(a1-3)[Gal(b1-4)]GlcNAc(b1-2)Man
# In short: as §1
# [19] = biological target: Fuc(a1-3)[Gal(b1-4)]GlcNAc(b1-2)Man(a1-3)[Fuc(a1-3)[Gal(b1-4)]GlcNAc(b1-2)Man(a1-6)]Man(b1-4)GlcNAc(b1-4)GlcNAc
# In short: as §1
# [20] = biological target: Fuc(a1-3)[Gal(b1-4)]GlcNAc(b1-2)Man(a1-3)[Fuc(a1-3)[Gal(b1-4)]GlcNAc(b1-2)Man(a1-6)]Man(b1-4)GlcNAc(b1-4)[Fuc(a1-6)]GlcNAc
# In short: as §1
# [21] = biological target: Fuc(a1-3)[Gal(b1-4)]GlcNAc(b1-3)Gal(b1-3)[Fuc(a1-4)]GlcNAc
# In short: as §1
# [22] = biological target: Fuc(a1-3)[Gal(b1-4)]GlcNAc(b1-3)Gal(b1-4)[Fuc(a1-3)]GlcNAc
# In short: as §1
# [23] = biological target: Fuc(a1-3)[Gal(b1-4)]GlcNAc(b1-3)Gal(b1-4)[Fuc(a1-3)]GlcNAc(b1-3)Gal(b1-4)[Fuc(a1-3)]GlcNAc
# In short: as §1
# [24] = biological target: Fuc(a1-3)[Gal(b1-4)]GlcNAc(b1-3)GalNAc
# In short: as §1
# [25] = biological target: Fuc(a1-3)[Gal(b1-4)]GlcNAc(b1-6)GalNAc
# In short: as §1
# [26] = biological target: Fuc(a1-3)[Gal(b1-4)]GlcNAc(b1-6)[Gal(b1-3)GlcNAc(b1-3)]Gal(b1-4)Glc
# In short: as §1
# [27] = biological target: Fuc(a1-3)[Gal(b1-4)]GlcNAc6S
# In short: as §1
# [28] = biological target: Fuc(a1-3)[Gal3S(b1-4)]Glc
# In short: as §1
# [29] = biological target: Fuc(a1-3)[Gal3S(b1-4)]GlcNAc
# In short: as §1
# [30] = biological target: Fuc(a1-3)[Gal3S(b1-4)]GlcNAc6S
# In short: as §1
# [31] = biological target: Fuc(a1-3)[GalNAc(b1-4)]GlcNAc
# In short: as §1
# [32] = biological target: Fuc(a1-3)[GalNAc(b1-4)]GlcNAc6S
# In short: as §1
# Fuc(a1-4)GlcNAc = biological target: Fuc(a1-4)GlcNAc
# In short: as §1
# Fuc(b1-3)GlcNAc = biological target: Fuc(b1-3)GlcNAc
# In short: as §1
# Gal(a1-2)Gal = biological target: Gal(a1-2)Gal
# In short: as §1
# Gal(a1-3)Gal = biological target: Gal(a1-3)Gal
# In short: as §1
binder,measurement,setting,value
B1,glycan array binding signal (z-score),[1],-0.776
same,glycan array binding signal (z-score),[2],0.955
same,glycan array binding signal (z-score),[3],-0.611
same,glycan array binding signal (z-score),[4],-1.35
same,glycan array binding signal (z-score),[5],0.814
same,glycan array binding signal (z-score),[6],-0.732
same,glycan array binding signal (z-score),[7],-0.305
same,glycan array binding signal (z-score),[8],1.05
same,glycan array binding signal (z-score),[9],-0.337
same,glycan array binding signal (z-score),[10],0.606
same,glycan array binding signal (z-score),[11],-0.788
same,glycan array binding signal (z-score),[12],0.121
same,glycan array binding signal (z-score),[13],0.459
same,glycan array binding signal (z-score),[14],0.721
same,glycan array binding signal (z-score),[15],0.127
same,glycan array binding signal (z-score),Fuc(a1-3)GlcNAc,1.03
same,glycan array binding signal (z-score),[16],-0.078
same,glycan array binding signal (z-score),[17],-1.1
same,glycan array binding signal (z-score),[18],1.26
same,glycan array binding signal (z-score),[19],-0.599
same,glycan array binding signal (z-score),[20],0.275
same,glycan array binding signal (z-score),[21],-1.11
same,glycan array binding signal (z-score),[22],0.472
same,glycan array binding signal (z-score),[23],0.276
same,glycan array binding signal (z-score),[24],-0.137
same,glycan array binding signal (z-score),[25],0.241
same,glycan array binding signal (z-score),[26],-1.75
same,glycan array binding signal (z-score),[27],0.362
same,glycan array binding signal (z-score),[28],-1.19
same,glycan array binding signal (z-score),[29],-0.144
same,glycan array binding signal (z-score),[30],0.942
same,glycan array binding signal (z-score),[31],0.526
same,glycan array binding signal (z-score),[32],0.837
same,glycan array binding signal (z-score),Fuc(a1-4)GlcNAc,-0.677
same,glycan array binding signal (z-score),Fuc(b1-3)GlcNAc,-0.015
same,glycan array binding signal (z-score),Gal(a1-2)Gal,-1.5
same,glycan array binding signal (z-score),Gal(a1-3)Gal,1.97

# Rewritten bar-delimited: entries from further up
binder | measurement | setting | value
B1 | glycan array binding signal (z-score) | [5] | 0.814
same | glycan array binding signal (z-score) | [6] | -0.732
same | glycan array binding signal (z-score) | [7] | -0.305
same | glycan array binding signal (z-score) | [8] | 1.05
same | glycan array binding signal (z-score) | [9] | -0.337
same | glycan array binding signal (z-score) | [10] | 0.606
same | glycan array binding signal (z-score) | [11] | -0.788
same | glycan array binding signal (z-score) | [12] | 0.121
same | glycan array binding signal (z-score) | [13] | 0.459
same | glycan array binding signal (z-score) | [14] | 0.721
